Some results were stated once for a whole list of compounds, not compound by compound. At least one structure is not confirmed: it was looked up by name or label, or the drawing left a doubt.
Tested on: S. aureus NorA-, wild type, and NorA+
Experiment: Photodynamic inactivation (PDI), light-dose dependent phototoxicity
Type: cell-based, Staphylococcus aureus
Details: wild type strain; 10 μM; 635-nm light
Protocol: A polylysine-chlorine6 conjugate (pL-ce6), and Rose Bengal (RB) (Sigma-Aldrich) were used as non-phenothiazinium-based PS (FIG. 3). Stock solutions were prepared in water at a concentration of 2-mM and stored for a maximum of 2 weeks at 4° C. in the dark before use. Spectra of stock solutions diluted 140-280 fold in methanol were recorded on an UV-visible spectroscopy system (Waldbronn, Germany). A non-coherent light source with interchangeable fiber bundles (LC122, LumaCare, London, UK) was employed. Thirty-nm band pass filters at ranges 540±15 nm for RB, 635±15 nm for TBO, and DMMB, and 660±15 nm for MB and pLce6 were used. The total power output provided out of the fiber bundle ranged from 300-700 mW. The spot was arranged to give an irradiance of 100 mW/cm^2.
Bacterial suspensions in PBS (initial concentration 10^8 cells mL^−1) were incubated with PS in the dark at room temperature for 30 minutes at concentrations varying from 1-μM to 300-μM. The cell suspensions were centrifuged at 12000 rpm and then washed twice with sterile PBS. […] This allowed a maximum of seven logs of killing to be measured. […]
The three isogenic strains of S. aureus were incubated with 10 μM MB for 30 minutes and then washed free of unbound dye by centrifugation and resuspension in PBS and illuminated with 100 mWcm^−2 660-nm light, and the survival fractions determined as described above. […]

SMILES	logs less killing (wild type vs NorA knockout)
Cc1cc(N(C)C)cc2[s+]c3cc(N(C)C)cc(C)c3nc12 [DMMB, 1,9-dimethylmethylene blue]	2-4 logs
Cc1cc2nc3ccc(N(C)C)cc3[s+]c2cc1N.[Cl-] [TBO, Toluidine blue O]	2-4 logs

Source: patent US20130115133A1, “INACTIVATION OF MICROORGANISMS WITH […] […] PHENOTHIAZINIUMS” (priority 2004, published 2013)
